The source of these data is ChEMBL document CHEMBL3856275, “Discovery of Second Generation Reversible Covalent DPP1 Inhibitors Leading to an Oxazepane Amidoacetonitrile Based Clinical Candidate (AZD7986)” (J Med Chem, 2016).

Converted amounts (≈) assume the structure as drawn.

Data set [1] is described as follows: physchem. As to conditions: buffer, pH 7.4.
The nature of data set [2]: physchem. As to conditions: octanol/water, pH 7.4.

As to `CCn1c(=O)oc2ccc(-c3ccc(C[C@@H](C#N)NC(=O)[C@@H]4CNCCCO4)cc3)cc21`, the solubility (kinetic) at 2 h in “physchem [1]” is 185 µM (≈ 80.4 µg/mL). Also, the logD at 10 µM in the data set “physchem [2]” came out at 1.3.
